The results in this text go back to doi:10.1101/2020.03.08.982389.

Amino acid sequences for entries named in this document (tags omitted).
UniProt Q9VLM8: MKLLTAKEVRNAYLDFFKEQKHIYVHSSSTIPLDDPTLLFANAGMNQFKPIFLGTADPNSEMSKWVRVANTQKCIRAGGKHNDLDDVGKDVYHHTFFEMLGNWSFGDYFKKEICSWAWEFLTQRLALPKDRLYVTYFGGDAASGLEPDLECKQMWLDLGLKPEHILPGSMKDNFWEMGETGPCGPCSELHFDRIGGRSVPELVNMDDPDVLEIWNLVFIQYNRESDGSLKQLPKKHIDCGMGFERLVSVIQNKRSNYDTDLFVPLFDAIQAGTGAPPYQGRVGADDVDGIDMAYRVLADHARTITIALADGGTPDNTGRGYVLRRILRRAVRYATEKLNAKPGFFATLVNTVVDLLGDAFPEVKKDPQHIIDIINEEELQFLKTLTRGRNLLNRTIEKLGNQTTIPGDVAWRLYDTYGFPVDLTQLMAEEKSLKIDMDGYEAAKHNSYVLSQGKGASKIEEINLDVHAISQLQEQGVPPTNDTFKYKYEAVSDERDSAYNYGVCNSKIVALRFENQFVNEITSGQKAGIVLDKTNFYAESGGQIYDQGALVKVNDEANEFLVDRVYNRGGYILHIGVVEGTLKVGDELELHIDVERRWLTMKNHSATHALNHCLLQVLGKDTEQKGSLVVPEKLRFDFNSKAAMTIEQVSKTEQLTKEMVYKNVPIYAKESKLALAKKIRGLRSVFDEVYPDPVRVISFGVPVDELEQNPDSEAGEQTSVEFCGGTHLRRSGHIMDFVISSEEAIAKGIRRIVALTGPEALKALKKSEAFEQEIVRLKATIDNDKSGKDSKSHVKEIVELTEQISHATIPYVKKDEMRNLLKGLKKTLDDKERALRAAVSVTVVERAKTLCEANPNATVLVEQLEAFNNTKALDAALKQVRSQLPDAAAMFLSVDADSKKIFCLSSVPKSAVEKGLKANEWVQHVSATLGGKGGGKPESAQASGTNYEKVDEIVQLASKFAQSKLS

Results are given in words; binding and its absence hold for the method and conditions named. In cells and extracts the contact can be indirect. These calls come from enrichment with a bait or labelling near it, and not all partners need be listed.

This assay has as its target GFP::Spg11-C (GFP-tagged Drosophila Spg11 C-terminus, amino acid residues 1468-1815) (Drosophila) (UniProt Q9W1Y8). The assay can be described thus: affinity purification with mass spectrometry.
In the case of “Drosophila homolog of alanyl-tRNA synthetase (AARS) (from UniProt Q9VLM8 1-966) (enzyme)”, the binding result is recorded as “binds”.

On to “serine-tRNA synthetase (from UniProt Q9VQL1) (enzyme)”, for which the binding entry is “binds”. The result for “Drosophila homolog of methionyl-tRNA synthetase (MARS) (from UniProt A1ZBE9) (enzyme)” reads “binds”.
